# Earlier results in patent publication US12458631B2, “Use of dihydroberberine or its derivatives for anti-glycation” (NANJING NUTRABUILDING BIO-TECH CO., LTD., priority 2022, dated 2025).
# The name of at least one read-out is uncertain.
# Conditions: literature, Feng et al. 2015; cited from earlier work
compound,measurement,value
"COc1ccc2c(c1OC)CN1CCc3cc4c(cc3C1=C2)OCO4 [DHB, Dihydroberberine]",absorption and oral bioavailability relative to BBR,improved absorption and enhanced oral bioavailability
